Several values for one entry are separate records, joined by “and”; a condition that tells them apart may be missing. Equal values may be shown once. The source gives many values for each of these; only a part stands here.
Experiment: Pharmacokinetic profiles after p.o., i.p. and i.v. administration
Format: in vivo, Wistar rats
Details: plasma, individual rats
Protocol: On the same day as C1 administration, the rats (three groups, n = 6) were previously cannulated for compound administration by the p.o., i.p., and i.v. routes. A 24 G catheter was placed in the right lateral tail vein for blood collection. A first group of rats received a single dose of 50 mg/kg applied p.o. with a 20 G gavage needle. A dose of 75 mg/kg of C1 was injected i.p. into the rats in the second group. A single dose of 50 mg/kg was given i.v. to the third group by means of another catheter previously placed in the left lateral tail vein. The doses used in this study were selected based on previous pharmacokinetic studies reported in rats for 5-ASA [60] or for derivatives of this compound [61]. Animals were provided with the standard diet 4 h after dosing. […] The volume of blood removed was supplemented with an equal volume of 0.9% sodium chloride solution. The blood samples were centrifuged at 8000 rpm for 15 min to harvest 100 μL of plasma.
Plasma samples were processed immediately. Briefly, 450 µL of acetonitrile was added to 100 µL of plasma and vortexed for 5 min. Subsequently, 450 µL of methanol was added, and the sample was vortexed again, followed by centrifugation to precipitate the proteins. Finally, 10 µL of the supernatant were used for evaluation of the plasma concentration of C1 by RP-HPLC with the UV detection method, previously validated for the pharmacokinetic and complementary assays herein performed.
The plasma concentration–time data were plotted. […] Pharmacokinetic parameters of C1 were calculated on Kinetica 5.0 software (Adept Scientific Ltd), including the maximum plasma concentration (Cmax), time to maximum plasma concentration (tmax), elimination half-life (t1/2e), the area under the plasma concentration-time curve from time zero to the last measurable concentration (AUC0-t), the area under the plasma concentration-time curve from time zero to infinity (AUCtot), mean residence time (MRT), clearance (CL), and apparent volume of distribution (Vd).

O=C(/C=C(/Br)C(=O)O)Nc1ccc(O)c(C(=O)O)c1 [Compound C1, 5-{[(2E)-3-bromo-3-carboxyprop-2-enoyl]amino}-2-hydroxybenzoic acid]
Concentration (µg/mL), Rat 1-6 (i.g. (p.o.) 50 mg/kg, 5 min, 50 mg/kg): 2.23 µg/mL and 1.07 µg/mL and 2.65 µg/mL and 2.43 µg/mL and 2.84 µg/mL and 1.84 µg/mL | Concentration (µg/mL), Rat 1-6 (i.g. (p.o.) 50 mg/kg, 10 min, 50 mg/kg): 2.41 µg/mL and 1.06 µg/mL and 2.91 µg/mL and 2.57 µg/mL and 2.53 µg/mL and 1.81 µg/mL | Concentration (µg/mL), Rat 1-6 (i.g. (p.o.) 50 mg/kg, 20 min, 50 mg/kg): 1.98 µg/mL and 2.91 µg/mL and 2.71 µg/mL and 3.24 µg/mL and 2.26 µg/mL | Concentration (µg/mL), Rat 1-6 (i.g. (p.o.) 50 mg/kg, 30 min, 50 mg/kg): 2.63 µg/mL and 1.64 µg/mL and 2.22 µg/mL and 2.82 µg/mL and 3.67 µg/mL and 1.75 µg/mL | Concentration (µg/mL), Rat 1-6 (i.g. (p.o.) 50 mg/kg, 45 min, 50 mg/kg): 1.76 µg/mL and 1.27 µg/mL and 2.20 µg/mL and 2.25 µg/mL and 3.51 µg/mL and 1.69 µg/mL | Concentration (µg/mL), Rat 1-6 (i.g. (p.o.) 50 mg/kg, 60 min, 50 mg/kg): 1.97 µg/mL and 1.30 µg/mL and 2.11 µg/mL and 2.26 µg/mL and 3.65 µg/mL and 1.58 µg/mL | Concentration (µg/mL), Rat 1-6 (i.g. (p.o.) 50 mg/kg, 90 min, 50 mg/kg): 0.86 µg/mL and 1.02 µg/mL and 1.49 µg/mL and 1.86 µg/mL and 4.54 µg/mL and 1.32 µg/mL | Concentration (µg/mL), Rat 1-6 (i.g. (p.o.) 50 mg/kg, 120 min, 50 mg/kg): 0.58 µg/mL and 0.72 µg/mL and 1.96 µg/mL and 1.41 µg/mL and 3.18 µg/mL and 1.20 µg/mL | Concentration (µg/mL), Rat 1-6 (i.g. (p.o.) 50 mg/kg, 180 min, 50 mg/kg): 0.00 µg/mL and 0.72 µg/mL and 0.67 µg/mL and 1.09 µg/mL and 2.26 µg/mL and 1.22 µg/mL | Concentration (µg/mL), Rat 1-6 (i.g. (p.o.) 50 mg/kg, 240 min, 50 mg/kg): 0.00 µg/mL (3×) and 1.10 µg/mL and 1.74 µg/mL and 1.15 µg/mL | Concentration (µg/mL), Rat 1-6 (i.g. (p.o.) 50 mg/kg, 300 min, 50 mg/kg): 0.00 µg/mL (3×) and 0.92 µg/mL and 1.45 µg/mL and 0.62 µg/mL | Concentration (µg/mL), Rat 1-6 (i.g. (p.o.) 50 mg/kg, 360 min, 50 mg/kg): 0.00 µg/mL (4×) and 0.91 µg/mL and 1.13 µg/mL | Concentration (µg/mL), Rat 1-6 (i.g. (p.o.) 50 mg/kg, 540 min, 50 mg/kg): 0.00 µg/mL (5×) and 0.82 µg/mL | Concentration (µg/mL), Rat 1-6 (i.g. (p.o.) 50 mg/kg, 600 min): 0.00 µg/mL | Concentration (µg/mL), Rat 1-6 (i.g. (p.o.) 50 mg/kg, 720 min): 0.00 µg/mL | Concentration (µg/mL), Rat 1-6 (i.p. 75 mg/kg, 5 min, 75 mg/kg): 19.30 µg/mL and 7.13 µg/mL and 18.64 µg/mL and 19.28 µg/mL and 27.99 µg/mL and 6.53 µg/mL | Concentration (µg/mL), Rat 1-6 (i.p. 75 mg/kg, 10 min, 75 mg/kg): 1.87 µg/mL and 10.07 µg/mL and 25.59 µg/mL and 23.48 µg/mL and 28.46 µg/mL and 16.26 µg/mL | Concentration (µg/mL), Rat 1-6 (i.p. 75 mg/kg, 20 min, 75 mg/kg): 11.09 µg/mL and 11.74 µg/mL and 26.19 µg/mL and 23.50 µg/mL and 27.24 µg/mL and 19.13 µg/mL | Concentration (µg/mL), Rat 1-6 (i.p. 75 mg/kg, 30 min, 75 mg/kg): 14.88 µg/mL and 11.12 µg/mL and 27.78 µg/mL and 24.20 µg/mL and 24.44 µg/mL and 16.88 µg/mL | Concentration (µg/mL), Rat 1-6 (i.p. 75 mg/kg, 45 min, 75 mg/kg): 19.20 µg/mL and 12.48 µg/mL and 25.65 µg/mL and 17.91 µg/mL and 19.27 µg/mL and 11.96 µg/mL | Concentration (µg/mL), Rat 1-6 (i.p. 75 mg/kg, 60 min, 75 mg/kg): 19.81 µg/mL and 12.19 µg/mL and 20.94 µg/mL and 14.34 µg/mL and 14.91 µg/mL and 8.72 µg/mL | Concentration (µg/mL), Rat 1-6 (i.p. 75 mg/kg, 90 min, 75 mg/kg): 15.76 µg/mL and 11.35 µg/mL and 14.35 µg/mL and 10.26 µg/mL and 9.01 µg/mL and 6.43 µg/mL | Concentration (µg/mL), Rat 1-6 (i.p. 75 mg/kg, 120 min, 75 mg/kg): 11.54 µg/mL and 12.02 µg/mL and 9.79 µg/mL and 9.54 µg/mL and 5.23 µg/mL and 5.75 µg/mL | Concentration (µg/mL), Rat 1-6 (i.p. 75 mg/kg, 180 min, 75 mg/kg): 4.99 µg/mL and 7.71 µg/mL and 5.09 µg/mL and 5.86 µg/mL and 3.06 µg/mL and 4.52 µg/mL | Concentration (µg/mL), Rat 1-6 (i.p. 75 mg/kg, 240 min, 75 mg/kg): 2.45 µg/mL and 4.34 µg/mL and 2.43 µg/mL and 3.35 µg/mL and 1.30 µg/mL and 3.21 µg/mL | Concentration (µg/mL), Rat 1-6 (i.p. 75 mg/kg, 300 min): 0.00 µg/mL | Concentration (µg/mL), Rat 1-6 (i.p. 75 mg/kg, 360 min): 0.00 µg/mL | Concentration (µg/mL), Rat 1-6 (i.p. 75 mg/kg, 540 min): 0.00 µg/mL | Concentration (µg/mL), Rat 1-6 (i.p. 75 mg/kg, 720 min): 0.00 µg/mL

Source: article PMC8617944, “Preclinical Pharmacokinetics and Acute Toxicity in Rats of 5-{[(2E)-3-Bromo-3-carboxyprop-2-enoyl]amino}-2-hydroxybenzoic Acid: A Novel 5-Aminosalicylic Acid Derivative with Potent Anti-Inflammatory Activity” (Molecules, 2021)
